Assay results published in patent US9637517 (dated 2017).

Legend:
[1] = general procedure: Fmoc solid-phase peptide synthesis; Rink Amide-MBHA; DIC/HOBt; conditions: whole synthesis, scale 190 mmol, acetate
[2] = general procedure: Fmoc solid-phase peptide synthesis; Rink Amide-MBHA Resin; DIC/HOBt; conditions: acetate
[3] = whole synthesis, HPLC (230 nm), SCX-HPLC for D-His-exenatide, scale 190 mmol, run 1
[4] = whole synthesis, HPLC (230 nm), SCX-HPLC for D-His-exenatide, scale 190 mmol, run 2

exenatide
crude mass ([1]; run 1): 836.97 g
crude mass ([1]; run 2): 846.9 g
final HPLC purity ([2]; purification step, 230 nm): greater than 98.5%
final HPLC purity ([2]; whole synthesis, HPLC (230 nm), SCX-HPLC for D-His-exenatide): 94.3%
crude purity (method not given) [2, 3]: 55.9%
final HPLC purity [2, 3]: 98.9%
crude purity (method not given) [2, 4]: 56.7%
final HPLC purity [2, 4]: 99.01%
isolated mass ([2]; whole synthesis, scale 190 mmol, run 1): 173.68 g
isolated mass ([2]; whole synthesis, scale 190 mmol, run 2): 176.84 g
